The target of the assay is AGO1 fused with C-terminal Flag- and HA-epitope tags (e-AGO1) (human) (UniProt Q9UL18). The experiment in a line: affinity purification with mass spectrometry.

The chains behind the UniProt entries cited, without tags or fusion partners.
UniProt P35637: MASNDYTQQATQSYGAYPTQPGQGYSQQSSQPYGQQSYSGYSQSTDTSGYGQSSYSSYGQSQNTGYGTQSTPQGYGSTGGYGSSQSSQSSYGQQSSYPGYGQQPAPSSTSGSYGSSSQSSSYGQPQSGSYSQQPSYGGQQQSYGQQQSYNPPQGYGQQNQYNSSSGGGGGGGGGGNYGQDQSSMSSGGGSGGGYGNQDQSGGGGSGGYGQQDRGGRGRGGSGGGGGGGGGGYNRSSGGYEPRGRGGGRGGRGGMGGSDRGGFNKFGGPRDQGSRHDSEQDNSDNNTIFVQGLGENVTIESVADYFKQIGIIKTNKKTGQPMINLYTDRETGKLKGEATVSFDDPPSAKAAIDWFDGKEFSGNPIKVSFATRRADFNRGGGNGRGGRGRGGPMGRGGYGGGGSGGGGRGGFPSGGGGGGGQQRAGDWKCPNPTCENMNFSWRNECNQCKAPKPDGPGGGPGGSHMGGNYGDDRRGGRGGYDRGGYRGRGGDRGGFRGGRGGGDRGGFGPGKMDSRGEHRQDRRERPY

Results are given in words; binding and its absence hold for the method and conditions named. Binding seen in cells or lysates may run through a third protein. Here binding means that the protein was enriched with, or labelled near, the bait; the list need not be complete.

Consider HNRNPK (from UniProt P61978 1-463), for which the binding entry is on record as “binds”. Then FUS (from UniProt P35637 1-526), with “binds”.

Source of the values: publication doi:10.1101/2025.01.26.634929.
